The other results are listed elsewhere or left out.
B1: il2ra_site1_2b5i_normal_mot_0e5a94e4a5addaac739760efb25f0f5d_0001_000000208_0001_18_32_H_._HHH_b2_07956_af2_0001_0000400021_0000001_0_af2pred_0001_af2pred (protein)
chain: SSSSTDEELELLRLITRALWLLRREGDEELVEELHELAREALHKDDPELLREAVEIAKEVNSSSS
B2: il2ra_site2_3nfp_sap_28_mot_HHH_b2_05281_000000198_0001_39_56_H_._71fa3b3ce36e4cc21c7110f2bf27d1ce_0001_af2_0001_0000100005_0000001_1_0001 (protein)
chain: SSSSSSEVEELFREVEELLERGDRYQAAQLILEMSRLAAERNDPEAARLVLELYKRALGSSSSSS
B3: il2ra_site2_2erj_sap_15_mot_HHH_b1_07182_000000298_0001_1_15_H_._HHH_b1_05853_af2_0001_0000900017_0000001_0_0001 (protein)
chain: SSSSSEETLKLLLEMAEEAYKEGDRARLELILRFLELSLRDTGDPRVEEAFREVEELLERLSSSS
B4: il2ra_site1_1z92_normal_mot_0a54d8a7266968de9ae0346ffe2baff0_0001_af2_000000020_0001_37_50_H_._84ee3a8f0a65711069ec53bc75935faa_0001_0001_0000100010_0000001_1 (protein)
chain: PLLEEDIQRALEEGNVEEVAEEIFRLAEEDAGDPKLASQFLKTLLKKAGVPPEEVERIVEKLERK
B5: il2ra_site2_3nfp_sap_21_mot_HHH_b2_03978_000000149_0001_1_20_H_._8dc8e935950a1f8e5bdf62a2e89caa87_0001_0001_0000500013_0000001_0_0001 (protein)
chain: SSSSDVEERLQELLEELERLIEEGDEERAKEILRELAHIAYRNNNPEVYFRVAELAFKVFGSSSS
B6: il2ra_site2_3nfp_normal_mot_HHH_b2_01155_000000159_0001_38_52_H_._HHH_b1_01900_af2_0001_0000300029_0000001_0 (protein)
chain: SSSSSEDEERVKELLEKAERYYEEGNPEEVEELLAEALEIAFERRDSELFMLVAEVAFRLRSSSS
B7: il2ra_site2_3nfp_normal_mot_HHH_b1_00660_af2_000000090_0001_40_57_H_._HHH_b1_01870_0001_0000500057_0000001_0_af2pred_0001_af2pred (protein)
chain: SSSSSSSEEEVERLLEEAEHIDDPEERRKVLLKASRIALENNNFELFAEVILVAERLRSSSSSSS
B8: il2ra_site2_2erj_sap_18_mot_801aa9fa2b252c557f093b13e8332d46_0001_000000136_0001_17_32_H_._HHH_b1_06640_0001_0000400009_0000001_1_0001 (protein)
chain: SSSSSESEERVKELLEEAERLYEEGNLHEVYKLAVEALRVAAENGDEELLRLIAEVIERLSSSSS
B9: il2ra_site1_1z92_normal_mot_HHH_b2_05238_af2_000000252_0001_38_55_H_._HHH_b1_07174_af2_0001_0000900012_0000001_0 (protein)
chain: SSSSKEEALEIMFRAVERALRAGDPRAAKRLLEFFRKQVEIEGDPEAKELLEELERLLEELSSSS
B10: il2ra_site1_2b5i_sap_17_mot_HHH_b1_07343_000000001_0001_1_17_H_._2604b9d93cf3bfb2f9660f4e92ac741a_0001_0001_0000600056_0000001_0_0001 (protein)
chain: SSSSSTDELEERANELFFEASRVPDPEEREKLLREALELAREGNDPKLEEEIRQMLERLGSSSSS
B11: il2ra_site1_1z92_sap_13_mot_HHH_b2_04040_af2_000000226_0001_19_35_H_._32095df27da28122ece9101737e5990b_0001_0001_0000200013_0000001_0_0001_af2pred_0001_af2pred (protein)
chain: SSSSSDEEEEEAEKVVEEVVELFGLDEEEEKLLERLARLALKQGISPEQIRRVLEDALELSSSSS
B12: il2ra_site2_2erj_sap_26_mot_3cad0fa5fd511b0551b272d6504d3e9d_0001_1_000000059_0001_37_51_H_._8e845404a349e0f791f287ce38454f41_0001_0001_0000200007_0000001_0_000 … (protein)
chain: SSSSSLHELFRLANEALRLLSEGDPEEAREVIEQLEELAEETNSRTVRDIVEALKKLLEMLSSSS
B13: il2ra_site2_3nfp_normal_mot_HHH_b2_07498_000000057_0001_1_14_H_._HHH_b2_00986_0002_0000200008_0000001_0 (protein)
chain: SSSSDIEERVKELLEEARELLEEGDFFEAAHLVVEATRLATEGNDPELAREVLELYELIKGSSSS
B14: il2ra_site1_1z92_sap_11_mot_HHH_eva_0265_000000128_0001_1_18_H_._HHH_b2_04596_0001_0000200016_0000001_0_0001_af2pred_dldesign_0_af2pred (protein)
chain: SLEDRIREAFKRGRIAKLLRELFAELEARLGDPEAARAELTDIVARTLDCPREDADRLIELALKP
B15: il2ra_site1_1z92_sap_18_mot_22aa8d8ad8dce7f663ea8fa348a52261_0001_000000005_0001_37_51_H_._a4d94f43bc0d423f3d0edd362bd39fea_0001_af2_0001_0000100001_0000001_0_0 … (protein)
chain: SLEEEVEELLREAGVPPSDIKNLKRLIELAKEQGVPPEDILRDLIRLLEFLGDPEAARLLQELLK
B16: il2ra_site1_1z92_normal_mot_HHH_b1_07537_af2_000000083_0001_43_56_H_._HHH_b1_04212_af2_0001_0000300027_0000001_0_af2pred_dldesign_0_af2pred (protein)
chain: SSSSSSPDELADKVDDLFKEALKLSDKEKRKELLEKALELAEKAESPKLVKEVRDYLSRLSSSSS
B17: il2ra_site2_3nfp_sap_19_mot_HHH_b2_04113_af2_000000292_0001_1_18_H_._HHH_b2_00306_0001_0000100003_0000001_1_0001 (protein)
chain: SDEREELLEKSVEYLRAFLKVLENPEAQEVVRRAVEVLEEAIEKQDPELRHEAIELLFEAAELLS
B18: il2ra_site2_3nfp_sap_22_mot_HHH_b2_05281_000000198_0001_39_56_H_._HHH_b1_07161_0001_0000200018_0000001_0_0001 (protein)
chain: SSSSSSWEVMQLAAEAIELDRNGNPEEARKVLEKAEELAEEEGDEWALEYVRARLLLLERSSSSS
B19: il2ra_site2_3nfp_normal_mot_HHH_b1_01086_000000225_0001_20_36_H_._HHH_b2_04820_af2_0001_0000400031_0000001_0_af2pred_0001_af2pred_1 (protein)
chain: SSSSDVEEEVRRLLEEAEELLEEGDKEEAERVLRKASELAREANNHELFAAVMQLLELVGSSSSS

These binders were tested against il2ra, P01589 (assay: yeast display titration).

Apparent Kd, inactive:
B1 no binding seen, B2 no binding seen, B3 no binding seen, B4 no binding seen, B5 no binding seen, B6 no binding seen, B7 no binding seen, B8 no binding seen, B9 no binding seen, B10 no binding seen, B11 no binding seen, B12 no binding seen, B13 no binding seen, B14 no binding seen, B15 no binding seen, B16 no binding seen, B17 no binding seen, B18 no binding seen, B19 no binding seen

From PMC10163288
